# Laboratory results: patent US4469680A (SmithKline Beckman Corporation, priority 1983, dated 1984)
# HELM strings list residues between dots; [ac] is acetyl, [am] amide, other brackets name non-standard units.
# Test: general procedure: Boc solid-phase peptide synthesis; benzhydrylamine resin (BHR) or chloromethyl/Merrifield resin (CMR)
# Details: late stage modification step
substance,measurement,value
"PEPTIDE1{[Pmp].[D-Tyr(I)].F.V.N.C.P.R.G.[am]}$PEPTIDE1,PEPTIDE1,1:R3-6:R3$$$V2.0",step yield,65%
